{
  "sequences": {"note": "The chains behind the UniProt entries cited, without tags or fusion partners. Where a name states a change or a piece, a line headed by the entry shows the natural chain unless it says otherwise.", "UniProt P18054": "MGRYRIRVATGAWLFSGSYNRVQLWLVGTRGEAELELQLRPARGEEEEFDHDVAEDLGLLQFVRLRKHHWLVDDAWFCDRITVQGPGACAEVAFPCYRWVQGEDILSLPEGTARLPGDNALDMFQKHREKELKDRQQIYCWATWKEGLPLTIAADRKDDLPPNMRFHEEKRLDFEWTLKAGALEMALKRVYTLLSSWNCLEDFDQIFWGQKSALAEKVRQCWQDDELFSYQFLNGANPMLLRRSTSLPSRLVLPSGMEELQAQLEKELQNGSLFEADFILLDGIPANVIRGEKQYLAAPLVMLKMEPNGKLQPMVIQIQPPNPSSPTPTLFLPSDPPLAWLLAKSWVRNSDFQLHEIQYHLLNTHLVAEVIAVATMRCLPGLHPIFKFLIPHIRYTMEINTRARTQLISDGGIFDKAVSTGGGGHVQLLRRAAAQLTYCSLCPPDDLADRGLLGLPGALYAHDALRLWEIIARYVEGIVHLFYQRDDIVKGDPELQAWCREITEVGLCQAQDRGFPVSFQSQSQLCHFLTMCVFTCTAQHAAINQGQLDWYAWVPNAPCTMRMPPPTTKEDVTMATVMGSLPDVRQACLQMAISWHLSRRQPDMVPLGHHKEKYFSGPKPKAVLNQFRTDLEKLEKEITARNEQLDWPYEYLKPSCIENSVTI"},
  "source": "PubChem BioAssay AID1671190",
  "about": "(National Center for Advancing Translational Sciences (NCATS), 2021)",
  "note": "The campaign covered roughly 580,000 compounds. About 6,100 (1.1%) were called active. The inconclusive results got no clear call from the source; some entries with a clear call stand among them for comparison. Calls come from the whole dose curve; as a rule, active = well fitted inhibition curve with a large enough effect; inconclusive = small, poorly fitted or top-dose-only effect, or another doubt; inactive = no such curve, though single readings can be large or run the other way. Potencies beside an inconclusive call are fits to weak or partial responses and may not hold up. % is set by controls: 0 for no effect and ±100 for the full control effect; potency is the fitted concentration of half-maximal effect.",
  "data": [
    {"target": "Polyunsaturated fatty acid lipoxygenase ALOX12 (Homo sapiens) (UniProt P18054)", "test": "Primary qHTS assay for inhibitors of human arachidonate 12S-lipoxygenase (ALOX12): Round 2", "details": "purified 12hLO, xylenol orange hydroperoxide absorbance; activity change, negative = inhibition: at 108 µM (top of the series) unless noted", "outline": "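Hydroperoxide product was detected by ferrous iron/xylenol orange as the 573 to 405 nm absorbance ratio. Arachidonic acid at 40 uM (final) was turned over for 30 min at room temperature by 150 nM human 12hLO, pH 7.0 Hepes buffer, after 15 min compound preincubation.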", "values": [
      {"smiles": "CO/N=C(\\C(=O)O)c1cn2ccsc2n1", "Potency": "active: 2.24 µM"},
      {"smiles": "CCC(Cc1ccccc1)NC(=O)/C=C/c1ccco1", "note": "(stereo not given)", "Potency": "inconclusive: 39.8 µM [inhibitor, partial curve, poor fit]"},
      {"smiles": "Oc1c(C=Nc2ccc(Cl)cn2)sc2ccccc12", "activity change, negative = inhibition": "inactive: -7.3%"},
      {"smiles": "CN(NC(=O)c1cccc(Cl)c1)c1nc(-c2ccccc2)nnc1C(F)(F)F", "Potency": "inconclusive: 3.98 µM [inhibitor, full curve, poor fit]"},
      {"smiles": "Cc1cccc(C(=O)Nc2cccc(C(=O)N3CCOCC3)c2)c1", "Potency": "inconclusive: 0.355 µM [inhibitor, full curve, poor fit]"},
      {"smiles": "COC(=O)c1sc2cccc(F)c2c1S(=O)(=O)N1CCN(c2cccc(C)c2C)CC1", "Potency": "inconclusive: 141 µM [inhibitor, partial curve, poor fit]"},
      {"smiles": "CC1OC(Oc2c(-c3cc(O)c(O)c(O)c3)oc3cc(O)cc(O)c3c2=O)C(O)C(O)C1O", "note": "(stereo not given)", "Potency": "inconclusive: 50.1 µM [inhibitor, partial curve]"},
      {"smiles": "Cc1ccccc1-c1noc(CN2CCC(c3ccn[nH]3)CC2)n1", "Potency": "inconclusive: 39.8 µM [inhibitor, single point]"},
      {"smiles": "CN(CC1CCN(CCc2ccc(F)cc2)CC1)C1CCC1", "activity change, negative = inhibition": "inactive: 4.99%"},
      {"smiles": "Cn1ccnc1Sc1cc(C(=N)N)ccn1", "Potency": "inconclusive: 44.7 µM [inhibitor, single point]"},
      {"smiles": "O=C(NCc1ccccc1)C(=O)Nc1ccc2cc[nH]c2c1", "Potency": "inconclusive: 31.6 µM [inhibitor, single point]"},
      {"smiles": "Cc1onc(-c2c(F)cccc2Cl)c1C(=O)OCC(=O)c1c(N)n(C)c(=O)n(C)c1=O", "activity change, negative = inhibition": "inactive: 41.7%"},
      {"smiles": "CCOC(=O)C1=C(CN2CCC(C)CC2)NC(=O)NC1c1ccc(Cl)cc1", "note": "(stereo not given)", "Potency": "inconclusive: 2.51 µM [inhibitor, full curve, poor fit]"},
      {"smiles": "Cn1c(=O)c2c(n3ncnc13)NC(=O)CC2c1cccc(F)c1", "note": "(stereo not given)", "Potency": "inconclusive: 12.6 µM [inhibitor, full curve]"},
      {"smiles": "C=Cc1ccc(CSc2nnc(C)n3c2cc2occc23)cc1", "Potency": "inconclusive: 56.2 µM [inhibitor, partial curve, poor fit]"},
      {"smiles": "Cn1c(=O)c2c(ncn2CC(=O)NCc2ccco2)n(C)c1=O", "Potency": "inconclusive: 50.1 µM [inhibitor, partial curve, poor fit]"},
      {"smiles": "CCNc1ncnc2c1CN(C1CCNCC1)C(=O)CN2C", "Potency": "inconclusive: 5.01 µM [inhibitor, full curve]"},
      {"smiles": "COc1ccc(NC(=O)c2oc3c(c2C)-c2nn(Cc4ccccc4Cl)cc2CC3)cc1OC", "Potency": "inconclusive: 7.08 µM [inhibitor, full curve, poor fit]"},
      {"smiles": "CCOC(=O)C1CCN(Cc2ccc(F)cc2)CC1", "Potency": "inconclusive: 1.78 µM [inhibitor, full curve, poor fit]"},
      {"smiles": "O=C(CS(=O)(=O)Cc1ccccc1)Nc1ccc(Br)cc1F", "activity change, negative = inhibition": "inactive: 9.38%"},
      {"smiles": "CCSc1ncc(CN2CCN(c3nc(C)cnc3C)CC2)cn1", "Potency": "inconclusive: 31.6 µM [inhibitor, single point]"},
      {"smiles": "O=C(c1ccccc1COc1ccccc1)N1CCN(C2CCS(=O)(=O)C2)CC1", "note": "(stereo not given)", "Potency": "inconclusive: 28.2 µM [inhibitor, partial curve, poor fit]"},
      {"smiles": "O=C(NCCCn1ccnc1)c1ccc(-c2cccc(Cl)c2Cl)o1", "Potency": "inconclusive: 141 µM [inhibitor, single point]"},
      {"smiles": "Cc1cc(/C=C2\\Sc3ccccc3N2C)cc(C)[n+]1CC1CCCO1", "note": "(stereo not given)", "activity change, negative = inhibition": "inactive: -22.5%"},
      {"smiles": "Cc1ccc(-c2cc(C(=O)O)c3cc(Cl)ccc3n2)cc1", "Potency": "inconclusive: 44.7 µM [inhibitor, partial curve, poor fit]"},
      {"smiles": "O=C(CC1C(=O)NCCN1Cc1cccc(F)c1F)NCCCC1CCCC1", "note": "(stereo not given)", "activity change, negative = inhibition": "inactive: -25.4%"},
      {"smiles": "CCCC(=NCCc1c(C)[nH]c2ccccc12)C1=C(O)CC(c2ccccc2)CC1=O", "note": "(stereo not given)", "Potency": "inconclusive: 5.01 µM [inhibitor, full curve, poor fit]"},
      {"smiles": "O=C(NCCCN1CCN(c2ccc(F)cc2)CC1)c1sc2ncccc2c1-n1cccc1", "activity change, negative = inhibition": "inactive: -20.1%"},
      {"smiles": "CCOc1cc(/C=C(\\C#N)C(=O)Nc2ccccn2)ccc1O", "Potency": "inconclusive: 39.8 µM [inhibitor, single point]"},
      {"smiles": "CCOC(=O)c1cc(-c2ccccc2)n(CCC(=O)Nc2ccc(C)cc2Cl)c1C", "Potency": "inconclusive: 141 µM [inhibitor, partial curve, poor fit]"},
      {"smiles": "O=C(COC(=O)c1ccc(NC(=O)c2cccs2)cc1)c1ccccc1", "activity change, negative = inhibition": "inactive: -22.1%"},
      {"smiles": "Cc1ccc2c(c1)C(=O)C(=O)N2Cc1ccc(OC(C)C)cc1", "activity change, negative = inhibition": "inactive: -27%"},
      {"smiles": "COc1ccccc1CNC(=O)c1cc(C)nn1-c1ccccc1", "activity change, negative = inhibition": "inactive: 0%"},
      {"smiles": "COc1ccc(NC(=O)C2CCCCN2N)cc1OC", "note": "(stereo not given)", "activity change, negative = inhibition": "inactive: 4.56%"},
      {"smiles": "O=C(NC(C1CC1)C1CC1)c1ccc(Cl)cc1", "activity change, negative = inhibition": "inactive: -1.03%"},
      {"smiles": "O=C(Nc1ccccc1N1CCOCC1)C1=NN(C2CCS(=O)(=O)C2)C(=O)CC1", "note": "(stereo not given)", "Potency": "inconclusive: 50.1 µM [inhibitor, partial curve, poor fit]"},
      {"smiles": "COc1cccc(CNC(=O)COc2cccc(-n3cnnn3)c2)c1", "Potency": "inconclusive: 126 µM [inhibitor, partial curve, poor fit]"},
      {"smiles": "Cc1cc(C)cc(NC(=O)CCS(=O)(=O)c2ccc3nc(C)sc3c2)c1", "activity change, negative = inhibition": "inactive: -17.8%"},
      {"smiles": "C=CC[n+]1c(C)csc1Nc1cccc(Br)c1", "Potency": "inconclusive: 70.8 µM [inhibitor, partial curve, poor fit]"},
      {"smiles": "CC1CCCCN1c1nc(-c2ccncc2)nc2ccccc12", "note": "(stereo not given)", "Potency": "inconclusive: 126 µM [inhibitor, partial curve, poor fit]"},
      {"smiles": "Cc1nc2cc3c(cc2c(C)c1C(=O)OC(C)C)OCO3", "Potency": "inconclusive: 50.1 µM [inhibitor, partial curve, poor fit]"},
      {"smiles": "Oc1ccc(-c2nc(-c3ccc(Cl)cc3)cs2)cc1", "Potency": "active: 14.1 µM"},
      {"smiles": "O=P(O)(CCc1ccccc1)C(O)c1ccccc1", "note": "(stereo not given)", "Potency": "inconclusive: 50.1 µM [inhibitor, single point]"},
      {"smiles": "CC(OC(=O)c1ccc(=O)n(Cc2ccccc2)n1)C(=O)Nc1cccc(Cl)c1", "note": "(stereo not given)", "Potency": "inconclusive: 100 µM [inhibitor, single point]"},
      {"smiles": "COCCCNc1oc(-c2ccc(F)cc2)nc1C#N", "Potency": "inconclusive: 100 µM [inhibitor, single point]"}
    ]}
  ]
}
